Measured values: patent US20230107186A1, “COBICISTAT FOR PREVENTION AND/OR TREATMENT OF CORONAVIRUS INFECTIONS” (priority 2020, published 2023)
For at least one compound, name, drawing or mass did not settle the structure.

Experiments:
[1] = system: SARS-CoV-2; assay: Inhibition of SARS-CoV-2 replication in cell lines (viral RNA by qPCR); format: cell-based; conditions: Vero E6 and T84; data not shown
[2] = target: 3CLpro (Severe acute respiratory syndrome coronavirus 2, UniProt P0DTD1); assay: 3CLpro FRET assay; format: biochemical, SARS-CoV-2

| Compound | antiviral activity, single drug [1] | effect on catalytic activity of 3CLpro [2] |
| --- | --- | --- |
| CCC(CC)COC(=O)[C@H](C)N[P@](=O)(OC[C@H]1O[C@@](C#N)(c2ccc3c(N)ncnn23)[C@H](O)[C@@H]1O)Oc1ccccc1 [remdesivir] | antiviral activity at previously described levels | – |
| CCC[C@@]1(CCc2ccccc2)CC(O)=C([C@H](CC)c2cccc(NS(=O)(=O)c3ccc(C(F)(F)F)cn3)c2)C(=O)O1 [Tipranavir] | – | partially inhibit 3CLpro activity |
